Results reported in paper PMC6940395.
Results are given in words; binding and its absence hold for the method and conditions named. Binding seen in cells or lysates may run through a third protein.

Biological target: T1, OST1/SnRK2.6 expressed in Arabidopsis mesophyll cell protoplasts (Arabidopsis) (UniProt Q940H6)
T1 sequence: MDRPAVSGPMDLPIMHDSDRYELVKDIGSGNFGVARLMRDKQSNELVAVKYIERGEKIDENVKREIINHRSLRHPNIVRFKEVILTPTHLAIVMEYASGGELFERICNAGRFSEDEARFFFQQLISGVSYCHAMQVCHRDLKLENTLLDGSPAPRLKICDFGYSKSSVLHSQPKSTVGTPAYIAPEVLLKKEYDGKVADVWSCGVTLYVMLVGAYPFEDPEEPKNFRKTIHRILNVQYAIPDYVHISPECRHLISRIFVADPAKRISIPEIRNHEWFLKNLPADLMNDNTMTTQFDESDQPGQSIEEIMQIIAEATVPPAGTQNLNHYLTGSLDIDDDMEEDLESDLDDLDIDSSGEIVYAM
Assay: co-IP; M3Kδ6 and OST1/SnRK2.6 expressed in Arabidopsis mesophyll cell protoplasts

binding: no binding
Substance: M3Kδ6 expressed in Arabidopsis mesophyll cell protoplasts (enzyme)
